The list shows a part of the results.
What follows are targets tested with COC1=CC=C(C=C1)CN2C=CC3=C2C=C(C=C3)C(=O)NO (assay: log2 fold change, soluble protein after heating vs DMSO (PISA); higher = thermal stabilisation; K562 cells, 10 uM, 30 min; active = over 0.2 and 3.5 SD of the protein, either way, in both replicates (recomputed)).
How it was run: (§1)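 K562 cells at 2×10^6 cells/mL were treated with 10 μM compound for 30 min. Aliquots were heated for 3 min across 48°C-58°C, pooled, and extracted in PBS with 0.5% NP-40 at 4°C; soluble protein was the supernatant after 21,000xg for 90 min. Soluble protein was quantified by TMTpro 16plex LC-MS/MS with channel sums equalised, and reported as log2 fold change in thermal stability against DMSO controls, with values from duplicates.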

Amino acid sequences for entries named in this document (tags omitted). A change or cut given only in a name is not applied to a line headed by its entry.
UniProt P13489: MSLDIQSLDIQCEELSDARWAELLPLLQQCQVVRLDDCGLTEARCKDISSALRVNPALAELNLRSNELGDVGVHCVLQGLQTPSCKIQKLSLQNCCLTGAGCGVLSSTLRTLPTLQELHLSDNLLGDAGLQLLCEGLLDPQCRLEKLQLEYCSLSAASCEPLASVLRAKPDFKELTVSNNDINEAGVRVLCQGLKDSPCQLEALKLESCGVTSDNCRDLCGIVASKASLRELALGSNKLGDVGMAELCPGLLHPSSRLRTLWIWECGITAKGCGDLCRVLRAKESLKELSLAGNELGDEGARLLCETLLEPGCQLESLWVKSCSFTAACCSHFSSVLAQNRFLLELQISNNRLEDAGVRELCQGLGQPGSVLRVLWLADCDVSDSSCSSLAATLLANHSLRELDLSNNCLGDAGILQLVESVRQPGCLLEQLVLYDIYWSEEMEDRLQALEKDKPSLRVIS
UniProt P04843: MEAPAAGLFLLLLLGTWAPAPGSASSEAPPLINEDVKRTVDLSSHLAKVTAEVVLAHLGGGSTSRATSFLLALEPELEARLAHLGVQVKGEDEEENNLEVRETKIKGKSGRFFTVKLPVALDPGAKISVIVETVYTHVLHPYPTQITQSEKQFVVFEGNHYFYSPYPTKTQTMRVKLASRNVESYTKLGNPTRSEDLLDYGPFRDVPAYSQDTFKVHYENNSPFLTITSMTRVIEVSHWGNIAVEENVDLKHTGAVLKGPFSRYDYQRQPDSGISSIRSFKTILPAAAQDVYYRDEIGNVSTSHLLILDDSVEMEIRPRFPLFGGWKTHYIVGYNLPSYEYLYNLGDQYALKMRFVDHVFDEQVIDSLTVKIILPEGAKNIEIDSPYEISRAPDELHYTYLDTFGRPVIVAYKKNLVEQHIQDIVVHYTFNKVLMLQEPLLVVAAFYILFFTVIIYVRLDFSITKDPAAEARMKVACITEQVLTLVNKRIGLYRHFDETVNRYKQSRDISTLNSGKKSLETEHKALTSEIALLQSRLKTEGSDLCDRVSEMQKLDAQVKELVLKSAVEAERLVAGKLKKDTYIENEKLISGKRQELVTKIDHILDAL
UniProt P10155: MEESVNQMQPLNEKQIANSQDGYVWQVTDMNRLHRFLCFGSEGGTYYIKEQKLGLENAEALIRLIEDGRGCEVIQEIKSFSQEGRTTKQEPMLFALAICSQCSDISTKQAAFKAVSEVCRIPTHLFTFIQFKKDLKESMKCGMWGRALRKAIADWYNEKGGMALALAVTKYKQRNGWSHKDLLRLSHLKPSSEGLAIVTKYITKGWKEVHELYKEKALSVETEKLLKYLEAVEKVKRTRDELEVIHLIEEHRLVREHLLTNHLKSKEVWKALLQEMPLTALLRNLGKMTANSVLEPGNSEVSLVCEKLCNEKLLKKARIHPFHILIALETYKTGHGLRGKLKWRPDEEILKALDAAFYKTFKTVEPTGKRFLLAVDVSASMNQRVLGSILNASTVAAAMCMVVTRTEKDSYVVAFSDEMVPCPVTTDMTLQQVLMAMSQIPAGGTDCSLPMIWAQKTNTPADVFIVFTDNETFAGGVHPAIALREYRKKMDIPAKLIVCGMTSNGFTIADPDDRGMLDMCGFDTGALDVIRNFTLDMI
UniProt Q7LG56, whole entry, looked up: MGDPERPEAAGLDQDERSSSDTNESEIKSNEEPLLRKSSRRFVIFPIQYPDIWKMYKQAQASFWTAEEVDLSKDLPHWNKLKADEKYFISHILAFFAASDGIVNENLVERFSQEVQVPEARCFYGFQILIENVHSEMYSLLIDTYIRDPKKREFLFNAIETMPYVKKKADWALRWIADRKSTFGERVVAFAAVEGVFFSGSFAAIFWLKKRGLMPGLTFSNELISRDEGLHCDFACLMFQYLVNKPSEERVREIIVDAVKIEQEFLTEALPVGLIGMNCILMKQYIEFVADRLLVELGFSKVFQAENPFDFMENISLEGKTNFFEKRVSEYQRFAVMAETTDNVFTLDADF
UniProt O75695: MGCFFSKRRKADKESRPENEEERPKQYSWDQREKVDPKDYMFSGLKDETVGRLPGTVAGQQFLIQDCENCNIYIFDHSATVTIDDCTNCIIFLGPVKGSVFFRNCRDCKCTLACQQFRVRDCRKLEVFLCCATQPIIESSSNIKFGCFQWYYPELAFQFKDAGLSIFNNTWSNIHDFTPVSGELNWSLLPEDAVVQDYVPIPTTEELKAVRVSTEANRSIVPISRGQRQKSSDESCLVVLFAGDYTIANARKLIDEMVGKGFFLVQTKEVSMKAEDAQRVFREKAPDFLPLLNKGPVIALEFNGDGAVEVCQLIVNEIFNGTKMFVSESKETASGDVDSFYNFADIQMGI
UniProt O75818: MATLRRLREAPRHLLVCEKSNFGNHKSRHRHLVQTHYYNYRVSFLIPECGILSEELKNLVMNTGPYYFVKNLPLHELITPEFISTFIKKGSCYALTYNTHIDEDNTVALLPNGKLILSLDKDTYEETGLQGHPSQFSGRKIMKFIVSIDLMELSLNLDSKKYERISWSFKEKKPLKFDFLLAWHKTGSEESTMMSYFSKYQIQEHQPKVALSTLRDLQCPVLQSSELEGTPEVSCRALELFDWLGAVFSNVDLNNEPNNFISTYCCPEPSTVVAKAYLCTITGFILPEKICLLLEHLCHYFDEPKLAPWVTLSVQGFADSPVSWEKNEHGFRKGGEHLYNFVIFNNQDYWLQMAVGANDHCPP
UniProt Q96BH1: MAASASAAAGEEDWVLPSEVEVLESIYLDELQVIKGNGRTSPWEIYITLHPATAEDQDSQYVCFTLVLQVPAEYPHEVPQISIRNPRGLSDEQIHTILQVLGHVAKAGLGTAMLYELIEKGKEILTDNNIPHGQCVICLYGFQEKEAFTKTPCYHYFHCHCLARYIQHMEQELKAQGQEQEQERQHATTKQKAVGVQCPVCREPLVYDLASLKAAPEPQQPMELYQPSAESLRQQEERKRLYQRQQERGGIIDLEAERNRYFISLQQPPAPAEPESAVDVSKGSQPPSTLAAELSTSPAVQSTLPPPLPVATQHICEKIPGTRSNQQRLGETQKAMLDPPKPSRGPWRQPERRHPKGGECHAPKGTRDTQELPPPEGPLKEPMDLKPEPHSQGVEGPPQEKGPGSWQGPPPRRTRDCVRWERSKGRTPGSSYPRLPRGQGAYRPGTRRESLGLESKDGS
UniProt Q86WX3: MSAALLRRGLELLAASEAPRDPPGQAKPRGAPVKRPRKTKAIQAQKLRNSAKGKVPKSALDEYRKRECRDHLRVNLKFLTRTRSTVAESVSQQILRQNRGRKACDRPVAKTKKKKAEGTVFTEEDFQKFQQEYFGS
UniProt Q9P2E9: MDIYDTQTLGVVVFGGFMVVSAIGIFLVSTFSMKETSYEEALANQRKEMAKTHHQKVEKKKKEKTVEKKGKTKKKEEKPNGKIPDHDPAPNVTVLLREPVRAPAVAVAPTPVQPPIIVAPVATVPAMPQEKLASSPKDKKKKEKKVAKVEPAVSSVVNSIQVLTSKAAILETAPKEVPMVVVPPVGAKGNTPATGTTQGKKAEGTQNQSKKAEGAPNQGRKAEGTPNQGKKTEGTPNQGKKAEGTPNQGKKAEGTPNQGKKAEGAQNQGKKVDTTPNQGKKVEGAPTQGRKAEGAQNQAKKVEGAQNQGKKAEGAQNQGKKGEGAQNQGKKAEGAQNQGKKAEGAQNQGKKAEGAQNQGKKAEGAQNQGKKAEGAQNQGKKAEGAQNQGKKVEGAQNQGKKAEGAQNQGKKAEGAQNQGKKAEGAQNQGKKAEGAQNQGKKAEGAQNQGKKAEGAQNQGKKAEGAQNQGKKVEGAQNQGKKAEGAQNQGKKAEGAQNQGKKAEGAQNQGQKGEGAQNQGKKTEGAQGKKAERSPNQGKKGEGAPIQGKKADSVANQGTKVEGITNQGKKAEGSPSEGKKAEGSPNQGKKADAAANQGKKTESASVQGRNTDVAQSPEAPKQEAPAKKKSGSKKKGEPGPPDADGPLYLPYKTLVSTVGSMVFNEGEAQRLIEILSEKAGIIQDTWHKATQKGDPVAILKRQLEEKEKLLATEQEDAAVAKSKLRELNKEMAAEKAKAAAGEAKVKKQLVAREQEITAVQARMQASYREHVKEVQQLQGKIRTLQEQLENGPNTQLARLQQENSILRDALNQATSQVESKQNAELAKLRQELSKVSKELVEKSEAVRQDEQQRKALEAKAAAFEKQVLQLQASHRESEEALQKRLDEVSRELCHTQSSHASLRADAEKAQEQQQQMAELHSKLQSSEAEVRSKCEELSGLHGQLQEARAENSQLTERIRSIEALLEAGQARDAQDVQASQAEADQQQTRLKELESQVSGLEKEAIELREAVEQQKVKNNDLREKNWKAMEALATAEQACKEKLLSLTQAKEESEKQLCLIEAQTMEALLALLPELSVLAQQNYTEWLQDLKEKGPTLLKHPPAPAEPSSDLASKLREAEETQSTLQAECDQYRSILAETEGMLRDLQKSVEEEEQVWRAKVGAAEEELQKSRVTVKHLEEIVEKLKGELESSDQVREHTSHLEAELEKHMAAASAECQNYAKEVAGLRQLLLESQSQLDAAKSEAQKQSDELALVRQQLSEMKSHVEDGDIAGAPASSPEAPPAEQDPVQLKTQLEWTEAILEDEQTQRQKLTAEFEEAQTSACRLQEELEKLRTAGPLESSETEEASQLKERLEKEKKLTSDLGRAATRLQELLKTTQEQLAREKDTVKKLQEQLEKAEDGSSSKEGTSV
UniProt P10301: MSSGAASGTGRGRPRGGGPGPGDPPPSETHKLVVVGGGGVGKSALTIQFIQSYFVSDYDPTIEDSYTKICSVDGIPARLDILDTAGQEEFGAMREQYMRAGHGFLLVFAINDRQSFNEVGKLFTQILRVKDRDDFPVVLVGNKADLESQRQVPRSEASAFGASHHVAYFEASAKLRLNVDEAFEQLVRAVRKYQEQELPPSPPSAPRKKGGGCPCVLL
UniProt O60942: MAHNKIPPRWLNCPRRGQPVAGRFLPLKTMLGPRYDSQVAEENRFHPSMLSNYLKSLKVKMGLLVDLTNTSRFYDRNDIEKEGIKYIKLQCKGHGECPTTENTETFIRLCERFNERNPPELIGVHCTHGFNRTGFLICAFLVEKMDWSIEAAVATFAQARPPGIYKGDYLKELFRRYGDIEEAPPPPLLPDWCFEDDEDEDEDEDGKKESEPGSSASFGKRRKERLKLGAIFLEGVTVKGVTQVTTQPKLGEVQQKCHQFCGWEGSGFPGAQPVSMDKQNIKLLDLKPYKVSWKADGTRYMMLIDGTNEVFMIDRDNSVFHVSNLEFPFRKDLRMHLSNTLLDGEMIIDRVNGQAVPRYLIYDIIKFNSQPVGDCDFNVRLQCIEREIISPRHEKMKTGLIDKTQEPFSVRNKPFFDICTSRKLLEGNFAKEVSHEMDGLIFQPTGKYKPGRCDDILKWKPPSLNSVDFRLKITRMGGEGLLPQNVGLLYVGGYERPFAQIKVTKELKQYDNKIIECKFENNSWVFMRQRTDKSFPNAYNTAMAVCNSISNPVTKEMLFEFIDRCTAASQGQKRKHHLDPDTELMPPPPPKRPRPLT
UniProt Q9H6T3, whole entry, looked up: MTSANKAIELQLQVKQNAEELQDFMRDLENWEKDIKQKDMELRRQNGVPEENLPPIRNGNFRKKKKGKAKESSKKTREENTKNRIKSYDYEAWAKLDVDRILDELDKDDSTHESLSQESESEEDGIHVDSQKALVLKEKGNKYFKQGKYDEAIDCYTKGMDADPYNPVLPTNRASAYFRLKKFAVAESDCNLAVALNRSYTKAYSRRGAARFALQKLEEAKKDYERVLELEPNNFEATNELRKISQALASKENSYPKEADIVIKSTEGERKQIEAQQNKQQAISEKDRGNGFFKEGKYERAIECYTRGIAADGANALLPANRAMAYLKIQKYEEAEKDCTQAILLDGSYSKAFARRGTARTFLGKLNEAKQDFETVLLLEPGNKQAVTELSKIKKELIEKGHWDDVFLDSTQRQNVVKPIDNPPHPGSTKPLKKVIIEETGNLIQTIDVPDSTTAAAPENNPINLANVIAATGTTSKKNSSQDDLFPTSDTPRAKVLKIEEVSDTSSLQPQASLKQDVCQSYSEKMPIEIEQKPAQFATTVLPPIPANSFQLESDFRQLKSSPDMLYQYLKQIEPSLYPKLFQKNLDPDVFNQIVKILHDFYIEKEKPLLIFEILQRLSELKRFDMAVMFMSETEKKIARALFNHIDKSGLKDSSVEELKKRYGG
UniProt Q92901: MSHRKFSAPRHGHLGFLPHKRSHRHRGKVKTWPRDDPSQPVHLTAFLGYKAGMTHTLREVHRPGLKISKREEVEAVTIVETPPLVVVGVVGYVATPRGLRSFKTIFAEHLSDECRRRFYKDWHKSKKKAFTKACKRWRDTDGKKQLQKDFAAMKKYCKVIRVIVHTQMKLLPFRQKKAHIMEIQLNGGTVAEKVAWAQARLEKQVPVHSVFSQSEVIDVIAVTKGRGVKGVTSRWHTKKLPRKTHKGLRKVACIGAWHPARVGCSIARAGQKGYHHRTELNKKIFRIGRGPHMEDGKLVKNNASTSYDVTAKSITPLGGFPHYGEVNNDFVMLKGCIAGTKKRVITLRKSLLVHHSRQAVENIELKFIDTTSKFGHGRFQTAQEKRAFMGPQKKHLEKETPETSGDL

log2 fold change, inactive:
RPL9 (UniProt P32969) -0.038, RNH1 (UniProt P13489) 0.101, RPL24 (UniProt P83731) -0.041, RPS17 (UniProt P08708) -0.036, RPL17 isoform 3 (UniProt P18621) -0.007, RPN1 (UniProt P04843) -0.017, RPP30 isoform 2 (UniProt P78346) 0.012, RPL15 (UniProt P61313) -0.16, RO60 (UniProt P10155) 0.024, RRM2B isoform 6 (UniProt Q7LG56) -0.138, RP2 (UniProt O75695) 0.057, RPP40 (UniProt O75818) -0.029, RPL36 (UniProt Q9Y3U8) -0.061, RPL11 (UniProt P62913) -0.094, RPL13 (UniProt P26373) -0.156, RNF25 (UniProt Q96BH1) 0.113, RPL8 (UniProt P62917) -0.103, RPS27 (UniProt P42677) -0.036, RPS19BP1 (UniProt Q86WX3) -0.343, RPL35 (UniProt P42766) -0.063, RPS10 (UniProt P46783) -0.048, RRBP1 (UniProt Q9P2E9) -0.104, RPL22 (UniProt P35268) -0.067, RPS6 (UniProt P62753) -0.093, RRAS (UniProt P10301) -0.019, RPL7 (UniProt P18124) -0.104, RPL13A (UniProt P40429) -0.115, RPL26 (UniProt P61254) -0.068, RPS29 (UniProt P62273) 0.025, RNGTT (UniProt O60942) -0.019, RPAP3 (UniProt Q9H6T3) 0.017, RPL3L (UniProt Q92901) -0.113

What follows are targets tested with CON(C)C(=O)N1N=C(c2cc(F)ccc2F)S[C@@]1(CCCN)c1ccccc1 [filanesib] in the same assay as above.
How it was run: as §1

log2 fold change, inactive:
RPL9 (UniProt P32969) 0.563, RNH1 (UniProt P13489) -0.101, RPL24 (UniProt P83731) 0.473, RPS17 (UniProt P08708) 0.105, RPL17 isoform 3 (UniProt P18621) 0.37, RPN1 (UniProt P04843) -0.07, RPP30 isoform 2 (UniProt P78346) -0.042, RPL15 (UniProt P61313) 0.786, RO60 (UniProt P10155) 0.021, RRM2B isoform 6 (UniProt Q7LG56) -0.016, RP2 (UniProt O75695) -0.132, RPP40 (UniProt O75818) 0.036, RPL36 (UniProt Q9Y3U8) 0.684, RPL11 (UniProt P62913) 0.644, RPL13 (UniProt P26373) 0.781, RNF25 (UniProt Q96BH1) -0.063, RPL8 (UniProt P62917) 0.714, RPS27 (UniProt P42677) 0.076, RPS19BP1 (UniProt Q86WX3) 0.362, RPL35 (UniProt P42766) 0.493, RPS10 (UniProt P46783) 0.14, RRBP1 (UniProt Q9P2E9) 0.589, RPL22 (UniProt P35268) 0.256, RPS6 (UniProt P62753) 0.528, RRAS (UniProt P10301) 0.038, RPL7 (UniProt P18124) 0.799, RPL13A (UniProt P40429) 0.715, RPL26 (UniProt P61254) 0.147, RPS29 (UniProt P62273) 0.138, RNGTT (UniProt O60942) -0.077, RPAP3 (UniProt Q9H6T3) 0.032, RPL3L (UniProt Q92901) 0.862

These targets were tested with CO[C@H]1C[C@@H]2CC[C@@H](C)[C@@](O)(O2)C(=O)C(=O)N2CCCC[C@H]2C(=O)O[C@H]([C@H](C)C[C@@H]2CC[C@H](n3cnnn3)[C@H](OC)C2)CC(=O)[C@H](C)/C=C(\C)[C@@H](O)[C@@H](OC)C(=O)[C@H](C)C[C@H](C)/C=C/C=C/C=C/1C [zotarolimus] in the same assay as above.
How it was run: as §1

log2 fold change, inactive:
RPL9 (UniProt P32969) 0.066, RNH1 (UniProt P13489) 0.023, RPL24 (UniProt P83731) -0.025, RPS17 (UniProt P08708) -0.001, RPL17 isoform 3 (UniProt P18621) 0.013, RPN1 (UniProt P04843) -0.005, RPP30 isoform 2 (UniProt P78346) -0.032, RPL15 (UniProt P61313) 0.003, RO60 (UniProt P10155) -0.024, RRM2B isoform 6 (UniProt Q7LG56) -0.048, RP2 (UniProt O75695) 0.139, RPP40 (UniProt O75818) -0.026, RPL36 (UniProt Q9Y3U8) 0.06, RPL11 (UniProt P62913) -0.006, RPL13 (UniProt P26373) -0.055, RNF25 (UniProt Q96BH1) 0.033, RPL8 (UniProt P62917) 0.08, RPS27 (UniProt P42677) -0.031, RPS19BP1 (UniProt Q86WX3) 0.009, RPL35 (UniProt P42766) -0.015, RPS10 (UniProt P46783) -0.036, RRBP1 (UniProt Q9P2E9) 0.01, RPL22 (UniProt P35268) 0.1, RPS6 (UniProt P62753) 0.073, RRAS (UniProt P10301) -0.056, RPL7 (UniProt P18124) 0.033, RPL13A (UniProt P40429) 0.077, RPL26 (UniProt P61254) 0.064, RPS29 (UniProt P62273) -0.017, RNGTT (UniProt O60942) -0.012, RPAP3 (UniProt Q9H6T3) -0.007, RPL3L (UniProt Q92901) 0.094

Source: the supplement of paper PMC10849652
